Values from PubChem BioAssay AID504784 (Drosophila RNAi Screening Center, 2011).

Screen: 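Fly genes whose silencing alters how much lipid cells keep in droplets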 (primary screen)
Cell system: Drosophila Kc167 embryonic cells
Reagent: long dsRNA against Drosophila genes, about 250 ng dsRNA per well
Time to read-out: 4 days
Treatment: cells fed 400 µM oleic acid bound to BSA
Read-out: 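Microscope images give a droplet-to-nucleus area ratio, taken as log and converted to a screen-wide B-score; higher values mean greater lipid storage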
Scale: droplet/nuclear area B-score: higher = more stored lipid (overstorage)
In all, the deposit lists about 17,000 reagents; this is an unselected part of those that have a named target and a result. 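Each column is one replicate's B-score; the combined score over replicates was not deposited, so single values may mislead.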 Not all columns of the deposit are shown.

no.	gene	amplicon	droplet/nuclear area B-score, replicate 1	droplet/nuclear area B-score, replicate 2
1	Drak	DRSC19778	0.813	-0.0988
2	Drak	DRSC23298	0.275	-0.434
3	CG13842	DRSC14692	0.401	-0.337
4	CG10874	DRSC00297	1.81	-0.24
5	ArgRS	DRSC20138	-0.759	-1.03
6	Bruce	DRSC16015	-0.366	-0.0482
7	e	DRSC16936	2.75	-0.0151
8	Spindly	DRSC00430	0.724	1.63
9	Srp14	DRSC15797	-0.00677	-0.317
10	Strump	DRSC09872	-0.856	0.34
11	cass	DRSC01850	-1.74	-3.14
12	CG32708	DRSC18411	0.0243	0.62
13	CG14323	DRSC14802	2.3	-1.21
14	CG12239	DRSC17832	1.62	-0.759
15	CG13786	DRSC02289	-2.43	0.393
16	Nt5a	DRSC08561	6.8	0.491
17	CG8326	DRSC20103	0.766	0.0375
18	CG5455	DRSC15805	-2.92	0.668
19	CG4537	DRSC02756	0.819	-1.78
20	CG8461	DRSC16424	-0.078	1.59
21	GC1	DRSC15322	2.73	0.00508
22	COX7B	DRSC10895	8.8	9.11
23	Mvd	DRSC20096	1.53	0.0562
24	ver	DRSC10125	-0.752	-1.4
25	Nepl18	DRSC14879	1.84	-0.889
26	Prat	DRSC16797	1.97	-0.0753
27	CG18130	DRSC19790	-0.631	0.893
28	CG15701	DRSC06572	-0.458	
29	CG5860	DRSC15896	-0.151	0.608
30	Arl1	DRSC09667	-2.32	0.52
31	CG15347	DRSC18031	0.034	1.37
32	Trxr1	DRSC18668	0.318	-0.261
33	Trxr1	DRSC22293	1.32	-0.278
34	CG13996	DRSC02328	1.7	1.44
35	CG13048	DRSC09929	0.364	0.557
36	lncRNA:iab4	DRSC22331	-0.0492	0.675
37	mei-41	DRSC20350	0.376	0.59
38	Ras85D	DRSC16814	-0.172	0.333
39	Cap-D3	DRSC02349	-1.08	0.0645
40	CG31624	DRSC02617	0.0431	1.86
41	CG12934	DRSC06247	-2.27	-1.75
42	CG15283	DRSC01980	-0.933	-0.0769
43	Impbeta11	DRSC07525	-1.85	-1.02
44	Rpn12	DRSC11275	0.816	1.58
45	c12.2	DRSC18751	-2.71	-0.0298
46	Pof	DRSC04405	0.0597	-2.16
47	HLH54F	DRSC07438	-1.75	4.08
48	Fatp (retired record)	DRSC03054	-0.506	-0.527
49	BBS9	DRSC04257	-0.381	1.08
50	CG17270	DRSC15209	0.0738	-0.326
51	CG42296	DRSC00394	-0.336	0.181
52	ATPsynB	DRSC09659	4.18	1.92
53	CG17258	DRSC00495	-1.28	0.124
54	CG17258	DRSC22709	-0.288	0.398
55	Osi3	DRSC12175	-0.766	0.202
56	Jhbp3	DRSC12247	0.00614	1.07
57	CG4250	DRSC04455	-0.298	0.237
58	Vps24	DRSC12332	2.11	-1.76
59	eIF3e	DRSC11199	3.25	3.7
60	mthl6	DRSC10234	-0.332	-0.632
61	CG4615	DRSC17491	0.0896	-0.597
62	CG4615	DRSC18376	-1.77	-1.75
63	CG30103	DRSC06894	0.401	-0.187
64	CG13700	DRSC10049	-1.43	-0.656
65	CG4239	DRSC19885	-0.472	-0.355
66	danr	DRSC14651	1.65	-0.26
67	trr	DRSC18845	-0.244	-0.681
68	trr	DRSC23290	-0.167	0.649
69	CG34447	DRSC00741	-0.895	-0.364
70	SAK	DRSC11879	-3.36	-1.46
71	SAK	DRSC23329	-0.38	-0.806
72	Msh6	DRSC10759	-0.316	-0.0254
73	CR18217	DRSC21506	-1.39	0.507
74	Nfs1	DRSC02154	0.168	-0.0267
75	BTBD9	DRSC18148	-0.0597	0.923
76	BTBD9	DRSC22371	-2.72	3.21
77	Ipp	DRSC16718	1.44	2.69
78	CG30470 (retired record)	DRSC05553	-3.88	-4.47
79	CG30470 (retired record)	DRSC06260	0.26	-2.19
80	CG30470 (retired record)	DRSC06261	-2.58	-0.034
81	CG30470 (retired record)	DRSC06777	1.49	0.312
82	CG30470 (retired record)	DRSC23183	-3.89	-3.13
83	CG7694	DRSC16288	2.25	0.771

As entered above:
Under “droplet/nuclear area B-score, replicate 1”, CG5455 [DRSC15805] has -2.92
Drak [DRSC19778], droplet/nuclear area B-score, replicate 2 → -0.0988
Result of Nfs1 [DRSC02154] under “droplet/nuclear area B-score, replicate 1”: 0.168
Trxr1 [DRSC18668], droplet/nuclear area B-score, replicate 2: -0.261
